Results reported in PubChem BioAssay AID504444 (National Center for Advancing Translational Sciences (NCATS), 2011).
The whole screen tested about 360,000 compounds, of which about 7,500 (2.1%) were called active. Inconclusive means that the source gave no clear call. Such entries were picked first, then a sample of the others. Calls follow the shape of the dose curve; as a rule, active = well fitted inhibition curve with a large enough effect; inconclusive = small, poorly fitted or top-dose-only effect, or effect the other way; inactive = flat fitted curve, though single readings scatter. Where the call is inconclusive, the potency comes from a doubtful curve fit.

Assay: Nrf2 qHTS screen for inhibitors; also: nearly all actives have a fitted effect of over 60% in size
Conditions: A549 ARE-Fluc reporter, luciferase luminescence, 18-24 h; series mostly up to 46 µM
Procedure, shortened: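 A549 ARE_Fluc cells (5000/well, 5% FBS OPTI-MEM) pre-incubated 2 h, then treated with compounds 18-24 h at 37C/5% CO2 in concentration-response. CellTiter-Fluor viability read first; BugLite luciferase luminescence after 15 min at room temperature gives Nrf2 activity.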
Potency is read from the fitted curve at half-maximal effect.

Row | Compound | Potency
1 | O=C(NCc1ccncc1)c1cccc(S(=O)(=O)Nc2ccc(F)cc2)c1 | inconclusive: 23.1 µM [falling, partial curve, poor fit]
2 | CCn1cc(C(=O)OCC(=O)Nc2cc(C)cc(C)c2)c(=O)c2ccc(C)nc21 | inactive
3 | O=C(OCC(=O)N1CCc2ccccc21)c1ccc(Cl)nc1 | inconclusive: 9.2 µM [activator, partial curve]
4 | COc1ccc(N2CCN(C(CNS(=O)(=O)c3ccc4c(c3)OCCO4)c3ccco3)CC2)cc1 (stereo not given) | inconclusive: 23.1 µM [falling, partial curve]
5 | COC(=O)c1scc(-c2ccc(C)cc2)c1S(=O)(=O)Nc1cccc(C(F)(F)F)c1 | inactive
6 | Oc1c(I)cc(Cl)c2cccnc12 | inconclusive: 8.2 µM [falling, partial curve]
7 | CCCNC(=O)/C=C/c1ccc(S(=O)(=O)Nc2ccccc2OC)cc1 | inconclusive: 2.91 µM [falling, partial curve, poor fit]
8 | CCCN1C(=O)/C(=C/c2ccc(N3CCCC3)c(C)c2)NC1=S | active: 20.6 µM
9 | COc1ccc2c(=O)cc(-c3ccncc3)oc2c1OC | active: 16.4 µM
10 | COc1ccc(-c2csc(N3C(=O)CNC3=S)n2)cc1 | inconclusive: 1.3 µM [activator, full curve]
11 | CCCn1c(O)c(N=NC(=O)c2ccco2)c2ccccc21 | inactive
12 | Cc1cc(NC(=O)C(C)SCC(=O)N(Cc2ccccc2)c2ccccc2)no1 (stereo not given) | inconclusive: 18.4 µM [activator, single point]
13 | CC(=O)NCCOc1ccc2oc3ccccc3c2c1 | inconclusive: 2.06 µM [activator, full curve, poor fit]
14 | NC(=S)NN=C1c2ccccc2-c2c(F)c(F)c(F)c(F)c21 | inactive
15 | Cc1ccc(OC2CCN(C(=O)C3CCC(=O)N(C4CC4)C3)CC2)cc1 (stereo not given) | inconclusive: 18.4 µM [falling, partial curve]
16 | CCOc1ccc(Nc2nc3ccccc3n3nnnc23)cc1 | inconclusive: 3.66 µM [falling, partial curve]
17 | CCOc1ccc(NC(=O)CN(C)C(=O)c2ccccc2CCc2ccccc2)cc1OCC | inactive
18 | CSc1nccc(-c2nn(-c3ccc(C)cc3)ccc2=O)n1 | inconclusive: 2.59 µM [falling, full curve]
19 | CCCCn1c2nc3ccccc3nc2c2c(=O)n(-c3ccccc3)cnc21 | inconclusive: 20.6 µM [falling, single point]
20 | COCCN1Cc2cccc(C(=O)Nc3ccc(C)cc3C)c2C1=O | inconclusive: 10.3 µM [falling, single point]
21 | Cc1ncc(C[n+]2csc(C)c2C)c(N)n1 | inactive
22 | COc1ccc(CCCc2n[nH]c(=S)o2)c(C)c1 | inconclusive: 18.4 µM [falling, partial curve, poor fit]
23 | CC(C)c1ccc(-c2csc3ncnc(N4CCN(C)CC4)c23)cc1 | inactive

Row | Compound | Potency
24 | O=C(N/N=C/C=C/c1ccccc1)c1cccnc1 | inconclusive: 6.51 µM [activator, single point]
25 | CC(=O)Oc1oc(-c2ccccc2)nc1/C=N/c1ccccn1 | inconclusive: 4.61 µM [activator, full curve, poor fit]
26 | Cc1ccc(SC[C@H](Cc2ccccc2)N2CCN(CCc3ccccc3)CCC2=O)cc1 | inconclusive: 18.4 µM [falling, partial curve, poor fit]
27 | O=C(O)COc1ccc(/C=C/c2nc3ccc([N+](=O)[O-])cc3s2)cc1 | inactive
28 | Cc1cc2c(s1)c1cnn(Cc3cccc(Br)c3)c(=O)c1n2C | inconclusive: 20.6 µM [activator, partial curve, poor fit]
29 | Cc1ccc2nc(-c3ccc(NC(=O)COc4c(C)ccc(C)c4C)cc3)sc2c1 | inconclusive: 1.84 µM [activator, full curve]
30 | COc1ccc2cc(-c3cc(C(=O)OCC(=O)Nc4c(C)n(C)n(-c5ccccc5)c4=O)c4ccccc4n3)ccc2c1 | inconclusive: 2.91 µM [falling, partial curve]
31 | COc1ccc(CCNC(=O)CCN2C(=O)c3cccc4cccc(c34)C2=O)cc1OC | inactive
32 | COc1cc2nc(NC(=O)c3ccc(F)cc3Cl)sc(=O)c2cc1OC | active: 6.51 µM
33 | CCOC(=O)Cc1cc(=O)n2[nH]c(-c3ccccc3)c(-c3ccccc3)c2n1 | inconclusive: 29.1 µM [falling, single point]
34 | CCS(=O)(=O)N1CCCC(c2nc(-c3cccc(OC)c3)no2)C1 (stereo not given) | inconclusive: 2.91 µM [activator, single point]
35 | CC(C)OP(=O)(OC(C)C)C(NC(=O)c1ccc(Br)cc1)c1ccccc1 (stereo not given) | inconclusive: 29.1 µM [falling, single point]
36 | O=c1[nH]c(SCc2cccc(Cl)c2)nc2ccccc12 | inactive
37 | COc1cc(NC(=O)c2cccs2)ccc1NC(=O)Cc1ccccc1 | inconclusive: 29.1 µM [falling, single point]
38 | CCCCSCCCNC(=S)Nc1ccccc1C | inconclusive: 25.9 µM [falling, partial curve, poor fit]
39 | CSc1nc(-c2ccc(F)cc2)nc2c1Cc1c(CO)cnc(C)c1O2 | inconclusive: 29.1 µM [activator, single point]
40 | CC1CN(c2ccccc2)NC1=O (stereo not given) | inactive
41 | COc1cc2c(cc1OC)C(C)N(C(=O)Cn1ncc3c1-c1ccccc1OC3)CC2 (stereo not given) | inconclusive: 1.64 µM [falling, partial curve, poor fit]
42 | COc1ccc(-c2cc(-c3ccc(Br)cc3)nc3ncnn23)cc1OC | inconclusive: 4.11 µM [falling, partial curve, poor fit]
43 | CSc1nsc(NC(=O)OCc2ccc(Cl)cc2)n1 | inconclusive: 29.1 µM [falling, single point]
44 | Cc1ccc(S(=O)(=O)/N=C2\C=C(Nc3cccc(C(=O)O)c3)C(=O)c3ccccc32)c(C)c1 | inactive
45 | Cc1ccc(F)cc1NC(=O)Cc1ncc(C(F)(F)F)cc1Cl | inconclusive: 32.6 µM [falling, single point]

Arranged by SMILES length (low to high): some entries from above.
Row | Compound | Potency
14 | NC(=S)NN=C1c2ccccc2-c2c(F)c(F)c(F)c(F)c21 | inactive
15 | Cc1ccc(OC2CCN(C(=O)C3CCC(=O)N(C4CC4)C3)CC2)cc1 (stereo not given) | inconclusive: 18.4 µM [falling, partial curve]
35 | CC(C)OP(=O)(OC(C)C)C(NC(=O)c1ccc(Br)cc1)c1ccccc1 (stereo not given) | inconclusive: 29.1 µM [falling, single point]
